Article PMC3976330
No constants are given. Whether binding was seen depends on the method and setting. In cells and extracts the contact can be indirect. Values belong to the binder of their own block, whether it stands above or below them.

Chains of the proteins cited; added tags and fusions are not shown. Residues count along the entry.
UniProt P35637, residues 1-359: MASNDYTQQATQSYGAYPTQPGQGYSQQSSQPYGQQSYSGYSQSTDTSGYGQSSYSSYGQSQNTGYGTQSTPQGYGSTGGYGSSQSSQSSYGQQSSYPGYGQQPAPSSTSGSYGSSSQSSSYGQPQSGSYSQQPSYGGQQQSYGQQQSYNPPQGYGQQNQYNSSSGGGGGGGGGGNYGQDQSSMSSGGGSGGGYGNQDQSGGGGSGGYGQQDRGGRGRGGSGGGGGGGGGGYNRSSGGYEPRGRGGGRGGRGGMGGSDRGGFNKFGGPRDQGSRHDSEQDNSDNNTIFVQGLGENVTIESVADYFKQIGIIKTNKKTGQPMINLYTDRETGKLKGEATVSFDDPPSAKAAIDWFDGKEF

Assays:
[1] = biological target: GFP-tagged N-terminal fragment of FUS (aminoacids 1–359) (human) (UniProt P35637); assay: co-IP; GFP-tagged protein precipitated from lysates of SH-SY5Y cells 24 h after transfection (untreated or treated with actinomycin D) with anti-GFP antibody (clone 3A9) and ProteinA/G sepharose beads or GFP-Trap agarose beads, 2 h at 4°C, PBS/1% Triton X-100; western blot for p54nrb/NONO
[2] = biological target: GFP-tagged full-length TDP-43 (human), Q13148; assay: as above; conditions: remark: other sources report otherwise

binding [1]: no binding
B1: endogenous p54nrb/NONO of SH-SY5Y cells (protein, UniProt Q15233 1-471)
chain: MQSNKTFNLEKQNHTPRKHHQHHHQQQHHQQQQQQPPPPPIPANGQQASSQNEGLTIDLKNFRKPGEKTFTQRSRLFVGNLPPDITEEEMRKLFEKYGKAGEVFIHKDKGFGFIRLETRTLAEIAKVELDNMPLRGKQLRVRFACHSASLTVRNLPQYVSNELLEEAFSVFGQVERAVVIVDDRGRPSGKGIVEFSGKPAARKALDRCSEGSFLLTTFPRPVTVEPMDQLDDEEGLPEKLVIKNQQFHKEREQPPRFAQPGSFEYEYAMRWKALIEMEKQQQDQVDRNIKEAREKLEMEMEAARHEHQVMLMRQDLMRRQEELRRMEELHNQEVQKRKQLELRQEEERRRREEEMRRQQEEMMRRQQEGFKGTFPDAREQEIRMGQMAMGGAMGINNRGAMPPAPVPAGTPAPPGPATMMPDGTLGLTPPTTERFGQAATMEGIGAIGGTPPAFNRAAPGAEFAPNKRRRY

binding [2]: no binding
B2: endogenous p54nrb/NONO of SH-SY5Y cells, Q15233 1-471 (protein)
chain: B1 chain
